Binding data for one substance are collected here from paper PMC4597190.

By UniProt entry, the sequences of proteins in these tests, tags left out.
UniProt P34152: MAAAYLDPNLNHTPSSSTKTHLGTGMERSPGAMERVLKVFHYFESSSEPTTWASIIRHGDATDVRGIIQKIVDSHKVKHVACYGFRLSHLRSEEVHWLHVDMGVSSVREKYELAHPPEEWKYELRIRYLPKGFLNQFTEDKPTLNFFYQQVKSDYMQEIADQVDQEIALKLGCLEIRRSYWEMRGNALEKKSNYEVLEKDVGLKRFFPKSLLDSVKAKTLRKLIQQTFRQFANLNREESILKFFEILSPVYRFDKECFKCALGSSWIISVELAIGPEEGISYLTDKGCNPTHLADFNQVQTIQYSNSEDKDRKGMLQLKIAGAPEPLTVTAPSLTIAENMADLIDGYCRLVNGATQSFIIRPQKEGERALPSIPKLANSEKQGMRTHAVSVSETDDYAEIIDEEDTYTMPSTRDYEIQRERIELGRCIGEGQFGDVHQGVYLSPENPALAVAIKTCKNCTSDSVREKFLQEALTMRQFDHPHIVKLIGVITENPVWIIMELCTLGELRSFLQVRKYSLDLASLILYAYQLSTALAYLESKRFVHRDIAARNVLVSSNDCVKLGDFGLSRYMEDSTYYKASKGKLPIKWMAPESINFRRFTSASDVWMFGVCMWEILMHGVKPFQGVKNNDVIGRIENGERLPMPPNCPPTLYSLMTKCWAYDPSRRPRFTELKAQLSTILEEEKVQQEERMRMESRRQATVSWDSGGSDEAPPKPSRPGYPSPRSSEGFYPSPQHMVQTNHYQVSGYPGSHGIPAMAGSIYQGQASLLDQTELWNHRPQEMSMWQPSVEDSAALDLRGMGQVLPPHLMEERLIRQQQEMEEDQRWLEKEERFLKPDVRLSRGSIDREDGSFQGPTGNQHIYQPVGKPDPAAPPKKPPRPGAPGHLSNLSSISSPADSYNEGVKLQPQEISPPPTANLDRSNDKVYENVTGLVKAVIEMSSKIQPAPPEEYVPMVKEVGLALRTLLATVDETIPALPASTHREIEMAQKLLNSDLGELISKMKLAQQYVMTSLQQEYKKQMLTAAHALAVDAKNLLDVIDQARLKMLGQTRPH
UniProt Q8VI33: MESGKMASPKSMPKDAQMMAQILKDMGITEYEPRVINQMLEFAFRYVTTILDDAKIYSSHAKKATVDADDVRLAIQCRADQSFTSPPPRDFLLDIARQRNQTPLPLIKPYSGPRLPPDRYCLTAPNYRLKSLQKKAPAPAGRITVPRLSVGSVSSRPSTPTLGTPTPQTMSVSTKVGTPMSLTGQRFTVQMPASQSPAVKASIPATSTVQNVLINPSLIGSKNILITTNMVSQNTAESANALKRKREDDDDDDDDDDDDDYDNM

These are yes or no findings as the source states them, for the method shown. Binding seen in cells or lysates may run through a third protein. Here binding means that the protein was enriched with, or labelled near, the bait; the list need not be complete.

This test deals with Focal adhesion kinase (FAK), wild-type, re-expressed in FAK-deficient SCC cells (UniProt P34152). Kind of test: affinity purification with mass spectrometry; FAK immunoprecipitation from purified nuclear extracts, on-bead digestion, quantitative label-free LC-MS/MS; SCC FAK-WT over SCC FAK-/- controls.

For “TAF9, TBP-associated factor, core component of the TFIID complex (from UniProt Q8VI33 1-264)”, the binding entry is on record as “binds”.
